Results on four substances are retold here after paper PMC8169803.

By UniProt entry, the sequences of proteins in these tests, tags left out.
UniProt Q99496: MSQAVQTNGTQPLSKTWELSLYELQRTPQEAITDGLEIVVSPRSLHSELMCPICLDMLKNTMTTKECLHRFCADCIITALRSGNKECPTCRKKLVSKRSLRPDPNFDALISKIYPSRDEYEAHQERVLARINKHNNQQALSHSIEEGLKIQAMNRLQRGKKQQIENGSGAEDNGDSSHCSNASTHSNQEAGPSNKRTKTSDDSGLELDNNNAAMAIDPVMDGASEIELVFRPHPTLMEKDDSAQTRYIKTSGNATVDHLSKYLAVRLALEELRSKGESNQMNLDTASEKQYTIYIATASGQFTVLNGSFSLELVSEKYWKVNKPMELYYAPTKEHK
UniProt Q9BSM1: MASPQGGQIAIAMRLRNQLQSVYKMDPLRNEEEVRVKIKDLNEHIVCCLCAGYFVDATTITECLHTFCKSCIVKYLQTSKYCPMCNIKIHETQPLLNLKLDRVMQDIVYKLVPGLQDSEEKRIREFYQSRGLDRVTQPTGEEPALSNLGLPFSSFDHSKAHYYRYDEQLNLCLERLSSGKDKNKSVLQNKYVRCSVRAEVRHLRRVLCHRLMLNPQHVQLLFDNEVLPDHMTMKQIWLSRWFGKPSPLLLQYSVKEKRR
UniProt Q06587: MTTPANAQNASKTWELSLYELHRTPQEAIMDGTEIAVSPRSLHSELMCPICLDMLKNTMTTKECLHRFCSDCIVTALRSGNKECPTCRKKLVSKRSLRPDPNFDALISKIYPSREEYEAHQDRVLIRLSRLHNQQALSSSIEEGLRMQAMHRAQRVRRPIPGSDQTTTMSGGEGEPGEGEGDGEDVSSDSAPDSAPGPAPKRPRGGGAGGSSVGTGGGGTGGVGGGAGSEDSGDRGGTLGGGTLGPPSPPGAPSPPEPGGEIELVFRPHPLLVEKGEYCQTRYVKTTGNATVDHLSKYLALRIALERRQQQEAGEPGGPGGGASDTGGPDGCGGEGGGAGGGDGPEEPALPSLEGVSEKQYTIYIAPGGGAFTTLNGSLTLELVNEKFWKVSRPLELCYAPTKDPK
UniProt Q93009: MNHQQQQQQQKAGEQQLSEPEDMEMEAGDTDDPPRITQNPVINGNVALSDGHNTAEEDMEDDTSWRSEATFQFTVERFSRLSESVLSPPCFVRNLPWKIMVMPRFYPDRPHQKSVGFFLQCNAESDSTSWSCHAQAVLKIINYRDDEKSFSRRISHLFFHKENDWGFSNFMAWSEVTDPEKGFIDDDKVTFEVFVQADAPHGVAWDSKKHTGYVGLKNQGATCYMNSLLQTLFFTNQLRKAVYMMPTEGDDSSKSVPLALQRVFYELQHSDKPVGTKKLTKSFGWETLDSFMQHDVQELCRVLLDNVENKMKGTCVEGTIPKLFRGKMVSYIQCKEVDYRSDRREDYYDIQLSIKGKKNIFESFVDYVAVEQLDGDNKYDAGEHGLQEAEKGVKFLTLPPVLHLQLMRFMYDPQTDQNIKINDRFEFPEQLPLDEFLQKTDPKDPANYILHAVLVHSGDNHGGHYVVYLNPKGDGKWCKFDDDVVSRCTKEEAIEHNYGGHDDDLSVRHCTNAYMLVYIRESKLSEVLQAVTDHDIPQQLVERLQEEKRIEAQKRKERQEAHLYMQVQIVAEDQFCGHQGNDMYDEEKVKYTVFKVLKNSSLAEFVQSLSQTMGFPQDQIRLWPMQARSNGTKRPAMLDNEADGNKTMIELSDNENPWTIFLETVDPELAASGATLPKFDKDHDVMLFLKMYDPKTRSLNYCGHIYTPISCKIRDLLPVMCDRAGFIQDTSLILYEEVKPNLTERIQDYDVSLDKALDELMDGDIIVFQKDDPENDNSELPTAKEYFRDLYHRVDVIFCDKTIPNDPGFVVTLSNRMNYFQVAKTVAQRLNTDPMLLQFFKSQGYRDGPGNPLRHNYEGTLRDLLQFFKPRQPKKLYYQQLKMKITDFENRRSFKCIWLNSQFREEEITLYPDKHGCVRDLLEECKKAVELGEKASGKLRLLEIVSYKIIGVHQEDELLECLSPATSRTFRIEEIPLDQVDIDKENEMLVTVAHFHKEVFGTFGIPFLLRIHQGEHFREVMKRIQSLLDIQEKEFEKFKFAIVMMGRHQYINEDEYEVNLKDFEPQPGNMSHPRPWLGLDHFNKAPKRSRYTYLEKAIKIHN

Experiment in all cases: co-IP; GFP-Trap magnetic agarose pull outs on nuclear extracts of K562 cells stably expressing the GFP fusion, 1 h at 4°C; input, non-bound and bound fractions on western blot; also from cells treated with P22077 (72 h, 30 μM) and from cells expressing SCR, TRIM27 or USP7 shRNAs
For test [1], the target named is T1, KDM2B-GFP (wild-type KDM2B, long form) (UniProt Q8NHM5).
T1 sequence: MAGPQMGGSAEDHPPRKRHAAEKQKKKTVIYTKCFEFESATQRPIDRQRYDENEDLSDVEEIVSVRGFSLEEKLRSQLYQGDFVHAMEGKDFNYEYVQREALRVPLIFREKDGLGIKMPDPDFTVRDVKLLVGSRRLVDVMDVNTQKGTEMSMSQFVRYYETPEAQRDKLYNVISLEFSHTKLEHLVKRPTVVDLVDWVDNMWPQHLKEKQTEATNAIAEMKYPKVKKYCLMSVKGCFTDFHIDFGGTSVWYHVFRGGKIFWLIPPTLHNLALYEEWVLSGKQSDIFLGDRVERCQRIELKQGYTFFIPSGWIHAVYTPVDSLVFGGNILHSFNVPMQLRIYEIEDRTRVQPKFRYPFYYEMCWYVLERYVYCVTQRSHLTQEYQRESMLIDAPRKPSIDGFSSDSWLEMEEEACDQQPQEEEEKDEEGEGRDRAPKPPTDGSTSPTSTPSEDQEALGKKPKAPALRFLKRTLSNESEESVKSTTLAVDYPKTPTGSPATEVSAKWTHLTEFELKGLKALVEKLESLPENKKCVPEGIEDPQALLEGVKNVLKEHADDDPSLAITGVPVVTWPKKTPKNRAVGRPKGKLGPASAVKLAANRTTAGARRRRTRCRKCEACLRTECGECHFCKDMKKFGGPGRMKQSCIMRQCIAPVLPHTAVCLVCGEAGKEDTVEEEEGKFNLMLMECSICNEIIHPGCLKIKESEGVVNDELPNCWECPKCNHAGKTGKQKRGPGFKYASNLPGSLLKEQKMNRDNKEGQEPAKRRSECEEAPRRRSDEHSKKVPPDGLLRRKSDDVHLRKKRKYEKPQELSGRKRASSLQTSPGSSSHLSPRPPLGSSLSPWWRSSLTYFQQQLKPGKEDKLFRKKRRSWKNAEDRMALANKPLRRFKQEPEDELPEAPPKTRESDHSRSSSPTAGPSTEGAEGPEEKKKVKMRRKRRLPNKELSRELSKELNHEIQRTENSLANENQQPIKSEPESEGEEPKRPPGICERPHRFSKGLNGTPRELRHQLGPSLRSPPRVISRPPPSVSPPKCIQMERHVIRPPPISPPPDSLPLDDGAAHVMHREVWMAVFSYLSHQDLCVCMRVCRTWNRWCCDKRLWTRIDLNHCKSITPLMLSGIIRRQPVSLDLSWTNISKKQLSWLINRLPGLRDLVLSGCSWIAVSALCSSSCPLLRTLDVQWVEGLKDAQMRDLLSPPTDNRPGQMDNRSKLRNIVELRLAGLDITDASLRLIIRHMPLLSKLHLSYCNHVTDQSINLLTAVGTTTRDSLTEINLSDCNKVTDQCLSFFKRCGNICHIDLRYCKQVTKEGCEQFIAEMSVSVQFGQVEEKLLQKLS

For test [2], the target named is GFP-RING1B (UniProt Q99496).
Test [3] concerns the target PCGF1-GFP (UniProt Q9BSM1).

No constants are given. Whether binding was seen depends on the method and setting. In cells and extracts the contact can be indirect. Some binding calls cover weakened binding; strength is not graded here. For some assays here: Tags and fused reporters may be left off the sequences shown.

As to “PCGF1, endogenous (from UniProt Q9BSM1 1-259)”, in test [1], the binding result is on record as “binds”.

Take “RING1A, endogenous (from UniProt Q06587 1-406)”: the binding entry in test [1] was “binds”.

With “RING1B, endogenous (from UniProt Q99496 1-336)”, in test [1], the binding result is reported as “binds”.

For the substance “USP7 (ubiquitin-specific peptidase 7), endogenous (from UniProt Q93009 1-1102) (enzyme)”, the binding result in test [2] and in test [3] was “binds” throughout.
